# Results reported in patent US7094543B2, “Methods for detecting rare polymorphic variants in genomic DNA sequences” (Massachusetts Institute of Technology, priority 2000, dated 2006).
# Tested on: 121 bp APC target sequence
# Assay: Pfu-PCR noise / polymerase error rate
# Assay type: biochemical, human
molecule,measurement,setting,value
"Pfu DNA polymerase: native Pyrococcus furiosus (Pfu) DNA polymerase with an associated 3′−>5′ exonuclease activity (Stratagene) (protein, UniProt P61875 1-775, looked up) DNA polymerase: MILDVDYITEEGKPVIRLFKKENGKFKIEHDRTFRPYIYALLRDDSKIEEVKKITGERHGKIVRIVDVEKVEKKFLGKPITVWKLYLEHPQDVPTIREKVREHPAVVDIFEYDIPFAKRYLIDKGLIPMEGEEELKILAFDIETLYHEGEEFGKGPIIMISYADENEAKVITWKNIDLPYVEVVSSEREMIKRFLRIIREKDPDIIVTYNGDSFDFPYLAKRAEKLGIKLTIGRDGSEPKMQRIGDMTAVEVKGRIHFDLYHVITRTINLPTYTLEAVYEAIFGKPKEKVYADEIAKAWESGENLERVAKYSMEDAKATYELGKEFLPMEIQLSRLVGQPLWDVSRSSTGNLVEWFLLRKAYERNEVAPNKPSEEEYQRRLRESYTGGFVKEPEKGLWENIVYLDFRALYPSIIITHNVSPDTLNLEGCKNYDIAPQVGHKFCKDIPGFIPSLLGHLLEERQKIKTKMKETQDPIEKILLDYRQKAIKLLANSFYGYYGYAKARWYCKECAESVTAWGRKYIELVWKELEEKFGFKVLYIDTDGLYATIPGGESEEIKKKALEFVKYINSKLPGLLELEYEGFYKRGFFVTKKRYAVIDEEGKVITRGLEIVRRDWSEIAKETQARVLETILKHGDVEEAVRIVKEVIQKLANYEIPPEKLAIYEQITRPLHEYKAIGPHVAVAKKLAAKGVKIKPGMVIGYIVLRGDGPISNRAILAEEYDPKKHKYDAEYYIENQVLPAVLRILEGFGYRKEDLRYQKTRQVGLTSWLNIKKS",Pfu DNA polymerase error rate,"121 bp APC target sequence, 21 doublings",1.8×10^−6 mutations per bp per doubling
same,"mutant fraction of each of fourteen polymerase-created GC->TA transversions, equivalent in the original samples",APC target sequence,around 10^−6
